± gives the uncertainty stated by the source. Many of these values have a large error.
Test: self-splicing fitness, log relative to wild type (ln ratio); higher = more splicing; Tetrahymena group I intron in knt gene, E. coli kanamycin selection, DiMSum; sequences stand for … in CUCUCU…GGAGGGAAAAGUUAUCAGGCAUGCACCUGGUAGCUAGUCUUUAAACCAAUAGAUUGCAUCGGUUUAAAAGGCAAGACCGUCAAAUUGCGGGAAAGGGGUCAACAGCCGUUCAGUACCAAGUCUCAGGGGAAACUUUGAGAUGGCCUUGCAAAGGGUAUGGUAAUAAGCUGACGGACAUGGUCCUAACCACGCAGCCAAGUCCUAAGUCAACAGAUCUUCUGUUGAUAUGGAUGCAGUUCACAGACUAAAUGUCGGUCGGGGAAGAUGUAUUCUUCUCAUAAGAUAUAGUCGGACCUCUCCUUAAUGGGAGCUAGCGGAUGAAGUGAUGCAACACUGGAGCCGCUGGGAACUAAUUUGUAUGCGAAAGUAUAUUGAUUAGUUUUGGAGUACUCGUGGUCG
Summary of the method: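 Colonies from six replicate transformations of E. coli BL21(DE3) were pooled and amplicon-sequenced on an Illumina HiSeq 2500. The library placed an intron with all eight P1ex-region nucleotides randomised inside the knt kanamycin-resistance gene on pET-22b(+), and cells grew overnight at 37°C or 30°C on LB agar with or without 25 μg/mL kanamycin (plus 100 μg/mL carbenicillin, 50 μM IPTG, 0.2% rhamnose). Fitness is the DiMSum error-weighted combination of wild-type-normalised replicate fold changes, kanamycin versus none.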

Sequence | self-splicing fitness (ln) (30 °C) | self-splicing fitness (ln) (37 °C)
CGUAAGCAAUAUUACGCACC | -2.44 ± 0.6 | –
CUCGAGCAAUAUUACGCGAC | -1.96 ± 1.2 | –
UACGAGCAAUAUUACGAUGC | -4.09 ± 0.59 | –
GUGGAGCAAUAUUACGGCUC | – | -1.39 ± 0.87
UCCUAGCAAUAUUACGAAAA | – | -2.45 ± 0.62
CACCAGCAAUAUUACGAUCC | – | -1.23 ± 0.6
GCGUAGCAAUAUUACGCUGU | – | -3.48 ± 0.59
CCUUAGCAAUAUUACGAUAC | -1.67 ± 0.44 | -2.55 ± 0.54
GACCAGCAAUAUUACGGUUC | -5.29 ± 0.25 | -2.73 ± 0.14
GAGGAGCAAUAUUACGUCCC | – | -3.04 ± 0.75
GGGUAGCAAUAUUACGUUAC | -4.67 ± 0.72 | –
GGGUAGCAAUAUUACGACGG | -3.76 ± 0.54 | –
CAUGAGCAAUAUUACGCUAA | -4.01 ± 0.6 | –
CAUAAGCAAUAUUACGAGAA | -3.49 ± 0.53 | –
CUUCAGCAAUAUUACGUCUA | -4.73 ± 1 | –
UGGAAGCAAUAUUACGCUGA | -3.72 ± 1 | –
UGGGAGCAAUAUUACGAAUC | -3.52 ± 1.1 | -1.79 ± 0.69
GGAUAGCAAUAUUACGAAAG | – | -2.23 ± 0.8
CAGAAGCAAUAUUACGGCGA | -1.43 ± 0.15 | -1.5 ± 0.18
ACGGAGCAAUAUUACGAUUC | – | -2.08 ± 0.51
CUGUAGCAAUAUUACGUCCC | -3.48 ± 1.1 | -0.975 ± 0.9

Sequence | self-splicing fitness (ln) (30 °C) | self-splicing fitness (ln) (37 °C)
ACCGAGCAAUAUUACGCUAC | -3.58 ± 0.19 | -2.86 ± 0.24
UGUUAGCAAUAUUACGCGCA | -0.674 ± 0.61 | -2.2 ± 0.63
AUGGAGCAAUAUUACGGGGU | -3.13 ± 0.61 | –
CCCGAGCAAUAUUACGCAAG | – | -2.34 ± 0.54
CUCGAGCAAUAUUACGGCUU | – | -2.3 ± 1.1
CUUUAGCAAUAUUACGUCGC | -1.8 ± 0.56 | –
GCUCAGCAAUAUUACGCUGC | -3.88 ± 0.72 | -1.99 ± 0.51
GUAUAGCAAUAUUACGAGCU | -2.42 ± 0.27 | -1.61 ± 0.3
AUCGAGCAAUAUUACGGGCU | -4.05 ± 0.23 | -2.94 ± 0.26
GUAAAGCAAUAUUACGUGGU | -3.26 ± 0.12 | -1.11 ± 0.095
CAUGAGCAAUAUUACGCCUC | -2.13 ± 0.65 | –
CGCAAGCAAUAUUACGCUUG | -2.74 ± 0.2 | -1.87 ± 0.21
GAAUAGCAAUAUUACGCCAC | – | -3.39 ± 1
CUUUAGCAAUAUUACGGCUU | – | -2 ± 0.67
CACGAGCAAUAUUACGCAGA | -4.63 ± 0.59 | –
GAAUAGCAAUAUUACGAUAG | -0.707 ± 0.15 | -1.47 ± 0.22
UUUCAGCAAUAUUACGAGGC | – | -2.11 ± 0.51
GUAUAGCAAUAUUACGCGGU | -3.85 ± 0.52 | –
CCCUAGCAAUAUUACGAGCC | – | -3.53 ± 0.73
CUUGAGCAAUAUUACGCCGC | – | -1.83 ± 0.69
GUGGAGCAAUAUUACGUCCA | -3.06 ± 0.83 | -2.64 ± 1.1

Complete entries, quoted from the list. Order of values: self-splicing fitness (ln) (30 °C)	self-splicing fitness (ln) (37 °C)
GAAUAGCAAUAUUACGCCAC as listed: –	-3.39 ± 1
GUGGAGCAAUAUUACGUCCA as listed: -3.06 ± 0.83	-2.64 ± 1.1
CUUUAGCAAUAUUACGGCUU as listed: –	-2 ± 0.67
CCCUAGCAAUAUUACGAGCC as listed: –	-3.53 ± 0.73

(cont.)

Sequence | self-splicing fitness (ln) (30 °C) | self-splicing fitness (ln) (37 °C)
AGAGAGCAAUAUUACGUGCA | -3.36 ± 0.26 | -2.34 ± 0.24
CUCGAGCAAUAUUACGUGUC | -4.18 ± 0.52 | –
CUACAGCAAUAUUACGUAAG | -1.14 ± 0.068 | -0.424 ± 0.092
CAAGAGCAAUAUUACGGUGA | -3.01 ± 0.2 | -1.88 ± 0.21
AUGCAGCAAUAUUACGCCGC | – | -3.17 ± 0.6
GUAGAGCAAUAUUACGGAAC | – | -1.41 ± 0.58
CCUGAGCAAUAUUACGAUAA | -3.21 ± 0.74 | -2.57 ± 1.1
UCUCAGCAAUAUUACGCCCC | -1.85 ± 0.88 | -2.15 ± 0.65
UUAUAGCAAUAUUACGCCGC | 0.209 ± 1 | –
GGUCAGCAAUAUUACGCUCC | 0.00526 ± 0.51 | -1.06 ± 0.8
UUAGAGCAAUAUUACGUAGC | – | -1.41 ± 0.51
GUUAAGCAAUAUUACGGGCC | -3.57 ± 1 | –
CAUGAGCAAUAUUACGUCGC | -3.59 ± 0.29 | -2.13 ± 0.42
UUGCAGCAAUAUUACGCCGC | -3.47 ± 1 | –
GAGGAGCAAUAUUACGCACC | – | -1.62 ± 1.1
CUUGAGCAAUAUUACGAAUA | – | -2.5 ± 0.55
AGAUAGCAAUAUUACGGGAC | -5.08 ± 0.71 | -3.18 ± 1
GUGCAGCAAUAUUACGCCGC | -3.18 ± 0.74 | -2.66 ± 0.62
CAAGAGCAAUAUUACGUGGU | -3.24 ± 0.11 | -2.46 ± 0.16

— the supplement of paper PMC7877785
